In publication PMC5095291:
No constants are given. Whether binding was seen depends on the method and setting. In cells and extracts the contact can be indirect. Some entries that bind do so weakly or less than the wild type.

Protein sequences, listed by entry. Tags and fused reporters are not part of them.
UniProt Q8CFI0: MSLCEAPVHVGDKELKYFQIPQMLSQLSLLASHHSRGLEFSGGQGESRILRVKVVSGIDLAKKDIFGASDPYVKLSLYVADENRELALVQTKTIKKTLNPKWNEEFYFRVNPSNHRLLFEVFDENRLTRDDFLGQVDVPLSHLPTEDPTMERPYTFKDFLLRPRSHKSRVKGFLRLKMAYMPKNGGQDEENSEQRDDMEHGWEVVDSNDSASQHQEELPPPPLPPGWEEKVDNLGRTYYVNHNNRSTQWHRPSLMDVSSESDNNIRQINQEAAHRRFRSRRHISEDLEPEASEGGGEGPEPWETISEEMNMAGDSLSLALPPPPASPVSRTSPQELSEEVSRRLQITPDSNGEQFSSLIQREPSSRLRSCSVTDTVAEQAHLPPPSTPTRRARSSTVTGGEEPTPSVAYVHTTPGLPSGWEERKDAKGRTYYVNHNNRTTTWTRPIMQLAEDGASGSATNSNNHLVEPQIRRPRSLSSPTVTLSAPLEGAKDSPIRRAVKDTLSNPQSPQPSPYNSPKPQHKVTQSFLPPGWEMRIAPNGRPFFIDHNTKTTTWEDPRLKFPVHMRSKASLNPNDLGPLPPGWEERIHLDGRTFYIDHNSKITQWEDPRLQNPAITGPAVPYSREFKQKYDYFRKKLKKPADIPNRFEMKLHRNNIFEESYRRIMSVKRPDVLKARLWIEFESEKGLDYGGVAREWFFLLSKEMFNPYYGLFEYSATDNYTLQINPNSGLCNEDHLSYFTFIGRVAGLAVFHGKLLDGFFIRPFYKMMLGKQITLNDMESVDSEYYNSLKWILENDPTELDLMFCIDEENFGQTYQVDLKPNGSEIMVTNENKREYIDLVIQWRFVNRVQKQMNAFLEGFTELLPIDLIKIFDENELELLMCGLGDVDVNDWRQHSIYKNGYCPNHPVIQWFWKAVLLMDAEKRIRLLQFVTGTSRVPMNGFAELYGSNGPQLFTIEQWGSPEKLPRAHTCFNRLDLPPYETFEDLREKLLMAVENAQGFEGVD

Biological target: T1, Ndfip1 (Nedd4 family interacting protein 1) (mouse (endogenous in FLMCs and BMCMCs)) (UniProt Q8R0W6)
T1 sequence: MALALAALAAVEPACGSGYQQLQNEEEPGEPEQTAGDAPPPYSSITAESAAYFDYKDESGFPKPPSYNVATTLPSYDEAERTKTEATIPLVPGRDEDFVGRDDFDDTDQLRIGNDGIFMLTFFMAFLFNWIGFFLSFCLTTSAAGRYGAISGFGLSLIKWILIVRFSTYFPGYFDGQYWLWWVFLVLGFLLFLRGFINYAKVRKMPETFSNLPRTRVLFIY
Assay: co-IP; endogenous proteins in lysates of IgE anti-DNP (SPE-7) sensitised FLMCs, without or with DNP-HSA (20 ng/ml) for the indicated times; lysis buffer with 50 mM Tris, 100 mM NaCl, 5 mM EDTA, 1% Triton X-100; IP with anti-Syk, anti-p-Syk or anti-Ndfip1 on Protein A Sepharose, blot for Nedd4-2; Nedd4-2-/- FLMCs and IP without antibody as controls

With “Nedd4-2 (Neural precursor cell-expressed developmentally downregulated gene 4-like) (from UniProt Q8CFI0 1-1004) (enzyme)” the binding was “binds”.
